This is one part of the list. Repeats are few or missing, and single values can be far off.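 Cells were imaged in 1,536-well plates, and nuclei stained with an antibody against cleaved PARP were counted against all DNA-stained nuclei to give the apoptosis fraction. Screening doses were chosen to leave most cells alive, and resting and induced cleaved-PARP levels differ strongly between cell lines.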

The first test deals with COLO829. Briefly: cleaved PARP positive nuclei fraction relative to DMSO control; melanoma cells; higher = more apoptosis. As to conditions: library dose: low library concentration; 72 h.
`Cn1sc(=O)n(Cc2ccccc2)c1=O` + CNC(=O)c1cc(Oc2ccc(NC(=O)Nc3ccc(Cl)c(C(F)(F)F)c3)cc2)ccn1 [sorafenib] (first compound 0.4 µM, partner dose 0.4 µM): the “cleaved PARP positive nuclei fraction” value was found to be 77.7%.
Still for that read-out and setting: the result for `CN(c1ncccc1CNc1nc(Nc2ccc3c(c2)CC(=O)N3)ncc1C(F)(F)F)S(C)(=O)=O` + CS(=O)(=O)CCNCc1ccc(-c2ccc3ncnc(Nc4ccc(OCc5cccc(F)c5)c(Cl)c4)c3c2)o1 [lapatinib] (first compound 0.08 µM, partner dose 0.8 µM) reads 61.8%.
Still for that read-out and setting: under `CCCCCCCCc1ccc(CCC(N)(CO)CO)cc1` [fingolimod] + CC(=O)O[C@@]12CO[C@@H]1C[C@H](O)[C@@]1(C)C(=O)[C@H](O)C3=C(C)[C@@H](OC(=O)[C@H](O)[C@@H](NC(=O)OC(C)(C)C)c4ccccc4)C[C@@](O)([C@@H](OC(=O)c4ccccc4)[C@H]21)C3(C)C [Docetaxel] (first compound 2 µM, partner dose 0.0001 µM) stands 135%; under `CCCCCCCCc1ccc(CCC(N)(CO)CO)cc1` [fingolimod] + COCC[n+]1c2c(n(Cc3cnccn3)c1C)C(=O)c1ccccc1C2=O [YM155] (first compound 2 µM, partner dose 0.0004 µM), 81.4%; under `NC1(c2ccc(-c3nc4ccn5c(=O)[nH]nc5c4cc3-c3ccccc3)cc2)CCC1` + C[C@@H](Oc1cc(-c2cnn(C3CCNCC3)c2)cnc1N)c1c(Cl)ccc(F)c1Cl [Crizotinib] (first compound 0.4 µM, partner dose 0.2 µM), 92.1%.
Same read-out and setting: under `C[C@]1(O)C[C@@H](c2nc(-c3ccc4ccc(-c5ccccc5)nc4c3)c3c(N)nccn32)C1` + Cc1cc(Nc2cc(N3CCN(C)CC3)nc(/C=C/c3ccccc3)n2)n[nH]1 [ENMD2076] (first compound 0.4 µM, partner dose 0.04 µM) stands 91.2%; under `Cn1sc(=O)n(Cc2ccccc2)c1=O` + C[C@@H](Oc1cc(-c2cnn(C3CCNCC3)c2)cnc1N)c1c(Cl)ccc(F)c1Cl [Crizotinib] (first compound 0.4 µM, partner dose 0.2 µM), 112%.
For the molecule `NC(=O)c1ccc(N(C(N)=O)c2c(F)cccc2F)nc1-c1ccc(F)cc1F` + CCCCCCCCc1ccc(CCC(N)(CO)CO)cc1 [fingolimod] (first compound 0.4 µM, partner dose 2 µM), the “cleaved PARP positive nuclei fraction” value was 66%.
Same read-out and setting: the result for `NC1(c2ccc(-c3nc4ccn5c(=O)[nH]nc5c4cc3-c3ccccc3)cc2)CCC1` + CO[C@H]1C[C@@H]2CC[C@@H](C)[C@@](O)(O2)C(=O)C(=O)N2CCCC[C@H]2C(=O)O[C@H]([C@H](C)C[C@@H]2CC[C@@H](OCCO)[C@H](OC)C2)CC(=O)[C@H](C)/C=C(\C)[C@@H](O)[C@@H](OC)C(=O)[C@H](C)C[C@H](C)/C=C/C=C/C=C/1C [everolimus] (first compound 0.4 µM, partner dose 0.02 µM) reads 154%.

The test system of another test is G361. The test is described as above. To be noted: library dose: low library concentration; 72 h.
For the molecule `CS(=O)(=O)c1ccc(C(=O)Nc2ccc(Cl)c(-c3ccccn3)c2)c(Cl)c1` [vismodegib] + OCc1c[nH]c2ccccc12 [Indole-3-carbinol] (first compound 1 µM, partner dose 0.8 µM), the “cleaved PARP positive nuclei fraction” value came out at 145%.
The same measure, in the same setting: under `COc1ccc(C2=N[C@@H](c3ccc(Cl)cc3)[C@@H](c3ccc(Cl)cc3)N2C(=O)N2CCNC(=O)C2)c(OC(C)C)c1` [Nutlin-3] + NC1(c2ccc(-c3nc4ccn5c(=O)[nH]nc5c4cc3-c3ccccc3)cc2)CCC1 [MK2206] (first compound 0.1 µM, partner dose 0.4 µM) stands 78.2%.
On the same count and under the same terms, under `COc1ccc(C2=N[C@@H](c3ccc(Cl)cc3)[C@@H](c3ccc(Cl)cc3)N2C(=O)N2CCNC(=O)C2)c(OC(C)C)c1` [Nutlin-3] + Clc1ccc(Nc2nnc(Cc3ccncc3)c3ccccc23)cc1 [vatalanib] (first compound 0.1 µM, partner dose 2 µM) stands 204%; under `Cn1sc(=O)n(Cc2ccccc2)c1=O` + CN(c1ncccc1CNc1nc(Nc2ccc3c(c2)CC(=O)N3)ncc1C(F)(F)F)S(C)(=O)=O [PF562271] (first compound 0.4 µM, partner dose 0.08 µM), 112%.
For `Cn1cnc2c(F)c(Nc3ccc(Br)cc3Cl)c(C(=O)NOCCO)cc21` [selumetinib] + CNC(=O)c1cc(Oc2ccc(NC(=O)Nc3ccc(Cl)c(C(F)(F)F)c3)cc2)ccn1 [sorafenib] (first compound 0.015 µM, partner dose 0.4 µM), the “cleaved PARP positive nuclei fraction” value came to 110%.
As for `NC1(c2ccc(-c3nc4ccn5c(=O)[nH]nc5c4cc3-c3ccccc3)cc2)CCC1` + CCCS(=O)(=O)Nc1ccc(F)c(C(=O)c2c[nH]c3ncc(Cl)cc23)c1F [PLX4720] (first compound 0.4 µM, partner dose 0.08 µM), the “cleaved PARP positive nuclei fraction” value turned out to be 99.4%.
For the molecule `NC(=O)c1ccc(N(C(N)=O)c2c(F)cccc2F)nc1-c1ccc(F)cc1F` + C#Cc1cccc(Nc2ncnc3cc(OCCOC)c(OCCOC)cc23)c1 [erlotinib] (first compound 0.4 µM, partner dose 0.8 µM), the “cleaved PARP positive nuclei fraction” value was 94.4%.
Turning to `C[C@@H](N)c1ccc(C(=O)Nc2ccnc3[nH]ccc23)cc1` + Cn1sc(=O)n(Cc2ccccc2)c1=O [TDZD-8] (first compound 0.4 µM, partner dose 0.4 µM), the “cleaved PARP positive nuclei fraction” value came to 139%.
Still for that read-out and setting: under `CS(=O)(=O)c1ccc(C(=O)Nc2ccc(Cl)c(-c3ccccn3)c2)c(Cl)c1` [vismodegib] + CCCCCCCCc1ccc(CCC(N)(CO)CO)cc1 [fingolimod] (first compound 1 µM, partner dose 2 µM) stands 34.1%; under `Cn1cnc2c(F)c(Nc3ccc(Br)cc3Cl)c(C(=O)NOCCO)cc21` [selumetinib] + C#Cc1cccc(Nc2ncnc3cc(OCCOC)c(OCCOC)cc23)c1 [erlotinib] (first compound 0.015 µM, partner dose 0.8 µM), 80.5%; under `CC1(C)CCC(c2ccc(Cl)cc2)=C(CN2CCN(c3ccc(C(=O)NS(=O)(=O)c4ccc(N[C@H](CCN5CCOCC5)CSc5ccccc5)c(S(=O)(=O)C(F)(F)F)c4)cc3)CC2)C1` + CS(=O)(=O)CCNCc1ccc(-c2ccc3ncnc(Nc4ccc(OCc5cccc(F)c5)c(Cl)c4)c3c2)o1 [lapatinib] (first compound 0.4 µM, partner dose 0.8 µM), 225%.
For the molecule `CC1(C)CCC(c2ccc(Cl)cc2)=C(CN2CCN(c3ccc(C(=O)NS(=O)(=O)c4ccc(N[C@H](CCN5CCOCC5)CSc5ccccc5)c(S(=O)(=O)C(F)(F)F)c4)cc3)CC2)C1` + O=C(O)[C@@H]1[O][Sb](=[O])([O][Sb]2(=[O])[O][C@H]([C@H](O)CO)[C@H](O)[C@H](C(=O)O)[O]2)[O][C@H]([C@H](O)CO)[C@@H]1O [stibogluconate] (first compound 0.4 µM, partner dose 2 µM), the “cleaved PARP positive nuclei fraction” value was 162%.
Same read-out and setting: under `CC1(C)CCC(c2ccc(Cl)cc2)=C(CN2CCN(c3ccc(C(=O)NS(=O)(=O)c4ccc(N[C@H](CCN5CCOCC5)CSc5ccccc5)c(S(=O)(=O)C(F)(F)F)c4)cc3)CC2)C1` + Nc1ccn([C@@H]2O[C@H](CO)[C@@H](O)C2(F)F)c(=O)n1 [gemcitabine] (first compound 0.4 µM, partner dose 0.0004 µM) stands 244%; under `C[C@]1(O)C[C@@H](c2nc(-c3ccc4ccc(-c5ccccc5)nc4c3)c3c(N)nccn32)C1` + CC(=O)O[C@@]12CO[C@@H]1C[C@H](O)[C@@]1(C)C(=O)[C@H](O)C3=C(C)[C@@H](OC(=O)[C@H](O)[C@@H](NC(=O)OC(C)(C)C)c4ccccc4)C[C@@](O)([C@@H](OC(=O)c4ccccc4)[C@H]21)C3(C)C [Docetaxel] (first compound 0.4 µM, partner dose 0.0001 µM), 684%; under `CC1(C)CCC(c2ccc(Cl)cc2)=C(CN2CCN(c3ccc(C(=O)NS(=O)(=O)c4ccc(N[C@H](CCN5CCOCC5)CSc5ccccc5)c(S(=O)(=O)C(F)(F)F)c4)cc3)CC2)C1` + Cn1sc(=O)n(Cc2ccccc2)c1=O [TDZD-8] (first compound 0.4 µM, partner dose 0.4 µM), 121%.
On to `C[C@]1(O)C[C@@H](c2nc(-c3ccc4ccc(-c5ccccc5)nc4c3)c3c(N)nccn32)C1` + OCc1c[nH]c2ccccc12 [Indole-3-carbinol] (first compound 0.4 µM, partner dose 0.8 µM), for which the “cleaved PARP positive nuclei fraction” value came out at 227%.
For the molecule `CN(c1ncccc1CNc1nc(Nc2ccc3c(c2)CC(=O)N3)ncc1C(F)(F)F)S(C)(=O)=O` + C[C@]1(c2nc3c(C(N)=O)cccc3[nH]2)CCCN1 [Veliparib] (first compound 0.08 µM, partner dose 1.4 µM), the “cleaved PARP positive nuclei fraction” value was found to be 62.1%.
Same read-out and setting: under `C[C@]1(O)C[C@@H](c2nc(-c3ccc4ccc(-c5ccccc5)nc4c3)c3c(N)nccn32)C1` + CCCS(=O)(=O)Nc1ccc(F)c(C(=O)c2c[nH]c3ncc(Cl)cc23)c1F [PLX4720] (first compound 0.4 µM, partner dose 0.08 µM) stands 226%; under `CN(c1ncccc1CNc1nc(Nc2ccc3c(c2)CC(=O)N3)ncc1C(F)(F)F)S(C)(=O)=O` + Cn1c(=O)n(-c2ccc(C(C)(C)C#N)cc2)c2c3cc(-c4cnc5ccccc5c4)ccc3ncc21 [NVP-BEZ235] (first compound 0.08 µM, partner dose 0.004 µM), 114%.
The same measure, in the same setting: the result for `NC(=O)c1ccc(N(C(N)=O)c2c(F)cccc2F)nc1-c1ccc(F)cc1F` + CC(=O)c1c(C)c2cnc(Nc3ccc(N4CCNCC4)cn3)nc2n(C2CCCC2)c1=O [palbociclib] (first compound 0.4 µM, partner dose 0.04 µM) reads 139%.

(Values after the supplement of paper PMC4604168 (melanoma cell lines).)
